The values below come from publication PMC3558320.

Chains of the proteins cited; added tags and fusions are not shown.
UniProt O08934: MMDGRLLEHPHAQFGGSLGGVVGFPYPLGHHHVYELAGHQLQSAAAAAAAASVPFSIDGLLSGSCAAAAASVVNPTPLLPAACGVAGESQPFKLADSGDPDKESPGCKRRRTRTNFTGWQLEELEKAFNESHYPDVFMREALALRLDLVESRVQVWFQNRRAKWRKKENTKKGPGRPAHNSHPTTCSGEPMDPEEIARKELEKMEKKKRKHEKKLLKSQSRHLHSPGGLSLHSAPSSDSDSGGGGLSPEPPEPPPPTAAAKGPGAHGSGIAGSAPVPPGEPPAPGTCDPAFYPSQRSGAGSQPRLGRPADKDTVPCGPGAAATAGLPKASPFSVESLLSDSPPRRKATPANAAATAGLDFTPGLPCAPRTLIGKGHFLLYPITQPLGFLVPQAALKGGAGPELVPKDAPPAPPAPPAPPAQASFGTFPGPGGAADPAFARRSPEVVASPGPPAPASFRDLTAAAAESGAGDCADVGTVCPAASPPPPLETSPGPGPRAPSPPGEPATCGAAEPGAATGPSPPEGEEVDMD

Results are given in words; binding and its absence hold for the method and conditions named. In cells and extracts the contact can be indirect. Where a sequence is shown, tags or fusion partners need not be part of it.

The test addresses T1, Ngn2-FLAG (mouse) (UniProt P70447).
T1 sequence: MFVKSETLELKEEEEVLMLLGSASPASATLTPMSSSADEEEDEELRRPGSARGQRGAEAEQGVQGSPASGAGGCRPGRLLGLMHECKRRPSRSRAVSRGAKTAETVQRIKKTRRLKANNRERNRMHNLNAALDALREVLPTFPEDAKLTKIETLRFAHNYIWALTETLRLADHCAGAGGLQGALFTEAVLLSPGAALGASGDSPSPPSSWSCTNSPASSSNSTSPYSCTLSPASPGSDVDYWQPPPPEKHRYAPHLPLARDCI
The experiment in a line: co-IP; Hela cells co-transfected with Uncx4.1-c-myc and Ngn2-FLAG, MG132 20 μm, harvested 24 hours after transfection; Co-IP with FLAG tagged beads; western blot with anti-c-myc and anti-FLAG.

For the substance “Uncx4.1-c-myc (from UniProt O08934 1-530)”, the binding result is reported as “no binding”.
